Record: PubChem BioAssay AID1053208 (Peter MacCallum Cancer Centre, 2014)

Screen: 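Synthetic lethal interactions between gene loss and doxorubicin in osteosarcoma cells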 (primary screen)
System: mouse osteosarcoma cells, early-passage culture from an engineered mouse model of fibroblastic bone tumour
Reagents: siRNA pool against mouse genes, 40 nM
Timing: about 120 h (48 h before drug, then 72 h with drug)
Treatment: doxorubicin 100 nM for 72 h, roughly 30-40% inhibitory dose
Measurement: 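Viability read as ATP luminescence after 72 h of 100 nM doxorubicin or none, duplicate wells averaged, scaled to non-targeting siRNA, then expressed as robust z-scores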
Scale: viability z-score with doxorubicin and doxorubicin viability vs non-targeting: higher = more viable cells under doxorubicin; viability z-score without drug: higher = more viable cells with knock-down alone; z-score of drug to no-drug ratio: higher = less drug sensitisation by knock-down
Rule for the call: 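a pool counts as active when its viability z-score with doxorubicin is -2 or below and its z-score without drug lies between -2 and 2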
The deposit covers about 17,000 reagents; below is a random part of them. Over the whole deposit, 788 (4.7%) are marked active. 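Calls rest on z-score classes alone; an extra cut-off of viability at most 70% of control was not applied to them.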 Reagents against one gene are numbered here. Reagent sequences are not shown.

Target gene | reagent | combined z-score class | viability z-score with doxorubicin | viability z-score without drug | z-score of drug to no-drug ratio | doxorubicin viability vs non-targeting | call
Zfp516 | 1 | no change with or without drug | -0.67 | 0.67 | -1.01 | 0.88 | inactive
Heg1 | 1 | no change with or without drug | 1.35 | 0.17 | 1.35 | 1.06 | inactive
Heg1 | 2 | no change with or without drug | 0.45 | 0.51 | 0.22 | 0.98 | inactive
Ankmy1 | 1 | no change with or without drug | -0.22 | 1.18 | -0.9 | 0.92 | inactive
Xkrx | 1 | no change with or without drug | 0.34 | -0.84 | 1.12 | 0.97 | inactive
4833444G19Rik | 1 | no change with or without drug | 0.67 | 1.69 | -0.34 | 1 | inactive
Prickle3 | 1 | low cell count with doxorubicin only | -2.36 | -1.52 | -1.46 | 0.73 | active
Defb37 | 1 | no change with or without drug | 1.35 | 0.51 | 1.12 | 1.06 | inactive
Rlim | 1 | low cell count with doxorubicin only | -2.36 | -0.67 | -2.02 | 0.73 | active
Usp26 | 1 | no change with or without drug | -0.34 | -0.67 | 0.22 | 0.91 | inactive
Srxn1 | 1 | no change with or without drug | 1.69 | -0.17 | 2.02 | 1.09 | inactive
Kcnq3 | 1 | no change with or without drug | 0.45 | 1.18 | -0.22 | 0.98 | inactive
Sumo3 | 1 | no change with or without drug | -0.67 | -0.51 | -0.22 | 0.88 | inactive
Crtac1 | 1 | no change with or without drug | 0.45 | 0.84 | 0 | 0.98 | inactive
Scaper | 1 | no change with or without drug | 0.9 | 1.52 | 0 | 1.02 | inactive
Pigp | 1 | no change with or without drug | 0 | 0.51 | -0.22 | 0.94 | inactive
Brf1 | 1 | no change with or without drug | 0.67 | -1.18 | 1.8 | 1 | inactive
Thoc1 | 1 | no change with or without drug | -0.67 | 0.67 | -1.01 | 0.88 | inactive
Or8d1 | 1 | no change with or without drug | 0.9 | 0.84 | 0.45 | 1.02 | inactive
Or1n2 | 1 | no change with or without drug | -1.12 | -1.01 | -0.45 | 0.84 | inactive
Or7g27 | 1 | no change with or without drug | 0.45 | -0.51 | 1.01 | 0.98 | inactive
Mymk | 1 | no change with or without drug | 1.24 | 1.52 | 0.34 | 1.05 | inactive
Pabpc4 | 1 | no change with or without drug | -0.11 | -0.17 | 0.11 | 0.93 | inactive
Ptn | 1 | high cell count with doxorubicin only | 2.25 | 1.52 | 1.35 | 1.14 | inactive
Asb16 | 1 | no change with or without drug | -1.12 | -1.18 | -0.34 | 0.84 | inactive
Hif1a | 1 | no change with or without drug | 1.8 | 1.18 | 1.12 | 1.1 | inactive
Ubxn8 | 1 | no change with or without drug | 0.45 | -1.01 | 1.35 | 0.98 | inactive
Cd93 | 1 | no change with or without drug | 0 | -0.51 | 0.45 | 0.94 | inactive
Zfp42 | 1 | no change with or without drug | -0.67 | -1.35 | 0.34 | 0.88 | inactive
AI182371 | 1 | no change with or without drug | 0.45 | 0.67 | 0.11 | 0.98 | inactive
Zbtb6 | 1 | no change with or without drug | 0 | 0.84 | -0.45 | 0.94 | inactive
Slc5a7 | 1 | low cell count with doxorubicin only | -2.02 | 0.67 | -2.36 | 0.76 | active
Sdc1 | 1 | no change with or without drug | 0.79 | 1.18 | 0.11 | 1.01 | inactive
Cacna2d2 | 1 | no change with or without drug | -0.56 | 1.18 | -1.24 | 0.89 | inactive
Cga | 1 | no change with or without drug | -0.56 | 0.17 | -0.56 | 0.89 | inactive
Racgap1 | 1 | low cell count without drug only | -1.8 | -6.74 | 4.95 | 0.78 | inactive
Setd1b | 1 | no change with or without drug | 0.79 | 0 | 0.9 | 1.01 | inactive
Tceal6 | 1 | no change with or without drug | 1.57 | 0.84 | 1.12 | 1.08 | inactive
Gstt3 | 1 | no change with or without drug | -0.22 | -0.17 | 0 | 0.92 | inactive
Plpbp | 1 | no change with or without drug | 0.56 | 0.84 | 0.11 | 0.99 | inactive
Fgfr1op2 | 1 | no change with or without drug | 0.34 | 1.18 | -0.34 | 0.97 | inactive
Sp100 | 1 | no change with or without drug | -0.22 | -0.17 | 0 | 0.92 | inactive
4632404H12Rik | 1 | no change with or without drug | -0.11 | -0.84 | 0.56 | 0.93 | inactive
Homer3 | 1 | no change with or without drug | 0.22 | 0.84 | -0.22 | 0.96 | inactive
Hps1 | 1 | no change with or without drug | -0.34 | -1.18 | 0.56 | 0.91 | inactive
Eqtn | 1 | no change with or without drug | 0.22 | -1.52 | 1.57 | 0.96 | inactive
Or2a7 | 1 | no change with or without drug | 1.35 | 0.51 | 1.12 | 1.06 | inactive
Or2b28 | 1 | no change with or without drug | -0.79 | -1.52 | 0.34 | 0.87 | inactive
Fgf16 | 1 | no change with or without drug | -0.11 | -0.17 | 0.11 | 0.93 | inactive
Fbxl2 | 1 | no change with or without drug | 0.67 | 0.17 | 0.67 | 1 | inactive
